Results are given in words; binding and its absence hold for the method and conditions named. Binding seen in cells or lysates may run through a third protein. A result given as binding can be weak or reduced; the word gives no strength. Where a sequence is shown, tags or fusion partners need not be part of it.
Experiments:
Assay in all cases: co-IP; transfected COS-7 cells; lysis in 150 mM Tris-HCl pH 8.0, 50 mM NaCl, 1 mM EDTA, 0.5% Nonidet P40; HA-αPIX precipitated on anti-HA agarose 2 h at 4°C; blot with anti-Cbl or anti-FLAG; in Fig 2A cells in 10% FBS or serum-starved and stimulated with 5 ng/ml EGF for 5-60 min
[1] = molecular target: HA-tagged αPIX lacking the coiled-coil domain (human) (UniProt Q15052)
[2] = molecular target: HA-tagged αPIX lacking the SH3 domain (human) (UniProt Q15052)
[3] = molecular target: HA-tagged αPIX lacking the calponin homology domain (human) (UniProt Q15052)

Protein sequences, listed by entry. Tags and fused reporters are not part of them. Lines headed by an entry give the natural chain unless they say otherwise; changes in a name come on top.
UniProt Q15052: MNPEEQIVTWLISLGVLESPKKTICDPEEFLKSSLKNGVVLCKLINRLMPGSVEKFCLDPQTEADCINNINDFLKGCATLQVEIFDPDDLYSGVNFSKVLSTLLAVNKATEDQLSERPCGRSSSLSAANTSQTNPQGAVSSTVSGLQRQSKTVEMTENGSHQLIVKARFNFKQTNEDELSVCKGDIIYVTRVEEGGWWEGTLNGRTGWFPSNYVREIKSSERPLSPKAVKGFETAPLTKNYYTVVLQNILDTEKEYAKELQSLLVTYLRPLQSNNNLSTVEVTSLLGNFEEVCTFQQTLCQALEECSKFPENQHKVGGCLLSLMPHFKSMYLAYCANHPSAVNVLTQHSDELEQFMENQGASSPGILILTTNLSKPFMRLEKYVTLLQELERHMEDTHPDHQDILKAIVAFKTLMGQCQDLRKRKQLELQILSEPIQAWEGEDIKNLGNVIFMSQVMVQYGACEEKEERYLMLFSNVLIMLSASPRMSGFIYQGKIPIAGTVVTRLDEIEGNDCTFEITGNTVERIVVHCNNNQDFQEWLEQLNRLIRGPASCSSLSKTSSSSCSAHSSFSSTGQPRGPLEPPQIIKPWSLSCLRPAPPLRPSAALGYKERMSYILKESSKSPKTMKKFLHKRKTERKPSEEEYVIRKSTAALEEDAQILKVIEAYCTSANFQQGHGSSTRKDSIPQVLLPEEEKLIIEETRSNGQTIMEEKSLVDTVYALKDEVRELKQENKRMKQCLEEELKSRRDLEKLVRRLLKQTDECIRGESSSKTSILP

Measured: binding

B1: Flag-tagged wild-type human GIT2 (protein, UniProt Q14161-1 1-759)
chain: MSKRLRSSEVCADCSGPDPSWASVNRGTFLCDECCSVHRSLGRHISQVRHLKHTPWPPTLLQMVETLYNNGANSIWEHSLLDPASIMSGRRKANPQDKVHPNKAEFIRAKYQMLAFVHRLPCRDDDSVTAKDLSKQLHSSVRTGNLETCLRLLSLGAQANFFHPEKGNTPLHVASKAGQILQAELLAVYGADPGTQDSSGKTPVDYARQGGHHELAERLVEIQYELTDRLAFYLCGRKPDHKNGQHFIIPQMADSSLDLSELAKAAKKKLQSLSNHLFEELAMDVYDEVDRRETDAVWLATQNHSALVTETTVVPFLPVNPEYSSTRNQGRQKLARFNAHEFATLVIDILSDAKRRQQGSSLSGSKDNVELILKTINNQHSVESQDNDQPDYDSVASDEDTDLETTASKTNRQKSLDSDLSDGPVTVQEFMEVKNALVASEAKIQQLMKVNNNLSDELRIMQKKLQTLQSENSNLRKQATTNVYQVQTGSEYTDTSNHSSLKRRPSARGSRPMSMYETGSGQKPYLPMGEASRPEESRMRLQPFPAHIGRSALVTSSSSLPSFPSTLSWSRDESARRASRLEKQNSTPESDYDNTPNDMEPDGMGSSRKGRQRSMVWPGDGLVPDTAEPHVAPSPTLPSTEDVIRKTEQITKNIQELLRAAQENKHDSYIPCSERIHVAVTEMAALFPKKPKSDMVRTSLRLLTSSAYRLQSECKKTLPGDPGSPTDVQLVTQQVIQCAYDIAKAAKQLVTITTKENNN
binds: all assays above

B2: Flag-tagged wild-type rat Git1 (protein, UniProt Q9Z272 1-770)
chain: MSRKGPRAEVCADCSAPDPGWASISRGVLVCDECCSVHRSLGRHISIVKHLRHSAWPPTLLQMVHTLASNGANSIWEHSLLDPAQVQSGRRKANPQDKVHPIKSEFIRAKYQMLAFVHKLPCRDDDGVTAKDLSKQLHSSVRTGNLETCLRLLSLGAQANFFHPEKGTTPLHVAAKAGQTLQAELLVVYGADPGSPDVNGRTPIDYARQAGHHELAERLVECQYELTDRLAFYLCGRKPDHKNGHYIIPQMADRSRQKCMSQSLDLSELAKAAKKKLQALSNRLFEELAMDVYDEVDRRENDAVWLATQNHSTLVTERSAVPFLPVNPEYSATRNQGRQKLARFNAREFATLIIDILSEAKRRQQGKSLSSPTDNLELSARNQSDLDDQHDYDSVASDEDTDQEPLPSAGATRNNRARSMDSSDLSDGAVTLQEYLELKKALATSEAKVQQLMKVNSSLSDELRKLQREIHKLQAENLQLRQPPGPVPVPSLPSERAEHTLMGPGGSTHRRDRQAFSMYEPGSALKPFGGAPGDELATRLQPFHSTELEDDAIYSVHVPAGLYRIRKGVSASSVTFTPSSPLLSSSQEGSRHASKLSRHGSGAESDYENTQSGEPLLGLEGKRFLELSKEDELHAELESLDGDPDPGLPSTEDVILKTEQVTKNIQELLRAAQEFKHDSFVPCSEKIHLAVTEMASLFPKRPALEPVRSSLRLLNASAYRLQSECRKTVPPEPGAPVDFQLLTQQVIQCAYDIAKAAKQLVTITTREKKQ
binds: all assays above
